This note sets out measurements from paper PMC11558822, “Myc 9aaTAD activation domain binds to mediator of transcription with superior high affinity” (Molecular Medicine, 2024).

The chains behind the UniProt entries cited, without tags or fusion partners. Where a name states a change or a piece, a line headed by the entry shows the natural chain unless it says otherwise. A line that says so, or that is headed by a name, gives the form on record, which may keep a tag or linker.
KIX domain of CBP coactivator (region 586-672) (P45481, form named): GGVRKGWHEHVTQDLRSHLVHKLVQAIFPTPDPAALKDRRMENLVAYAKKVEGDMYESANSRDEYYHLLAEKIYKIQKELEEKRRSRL

Results are given in words; binding and its absence hold for the method and conditions named.

In this experiment the target is T1, native Sp1 9aaTAD peptide (Biotin-GSS-…).
T1 sequence (peptide, Biotin on the N-terminus): GSSGQVSWQTLQLQNLQ
The experiment can be described thus: BLI; biotinylated Sp1 or Sp1-Ac peptide immobilised, KIX in solution in the 3-16 uM range; steady-state analysis, 1:1 model; apparent KD; both purified.

On to “KIX domain of CBP coactivator (region 586-672) (from UniProt P45481 586-672) (domain or fragment)”, for which the binding result is on record as “no binding (tested: 3–16 μM)”.
